Article PMC9262236
These are yes or no findings as the source states them, for the method shown. In cells and extracts the contact can be indirect. Some results given as binding are weak or reduced against the parent protein; the word gives no strength.

Sequences of proteins named here, by UniProt entry; tags and fusion partners are left off.
UniProt P62491: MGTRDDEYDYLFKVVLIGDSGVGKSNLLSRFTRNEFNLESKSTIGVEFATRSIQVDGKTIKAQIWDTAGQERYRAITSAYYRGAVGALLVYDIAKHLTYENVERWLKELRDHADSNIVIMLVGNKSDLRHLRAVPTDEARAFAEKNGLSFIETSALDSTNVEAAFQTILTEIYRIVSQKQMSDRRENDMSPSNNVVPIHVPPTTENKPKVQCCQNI
UniProt P12579: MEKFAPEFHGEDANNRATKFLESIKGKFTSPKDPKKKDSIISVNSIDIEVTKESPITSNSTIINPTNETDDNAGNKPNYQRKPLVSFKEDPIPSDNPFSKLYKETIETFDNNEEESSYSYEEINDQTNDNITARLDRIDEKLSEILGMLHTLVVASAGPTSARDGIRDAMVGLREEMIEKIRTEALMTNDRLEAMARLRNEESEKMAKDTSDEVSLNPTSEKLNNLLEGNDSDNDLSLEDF

Biological target: HA-Rab11a (WT) (human) (UniProt P62491)
Experiment: co-IP; lysates of A549-HA-Rab11a cells infected with wild type RSV (16 h) incubated overnight at 4°C with Magnetic-HA beads; lysis buffer Tris 25 mM pH 7.2, NaCl 150 mM, IGEPAL CA-630 0.2%, glycerol 10%, EDTA 0.5 mM; wild type A549 cells as control; western blot

Substance: RSV phosphoprotein P (from UniProt P12579 1-241)
- binding: binds
